Reference: article PMC6458997, “Deciphering the Molecular Mechanism Underpinning Phage Arbitrium Communication Systems” (Molecular Cell, 2019)
No signal at the amounts used counts as a negative. At least one verdict was read from the data and is not stated in words by the source. The exact form of at least one protein or probe is not confirmed. Weaker means in comparison with the reference protein, sequence or condition of that experiment.

Target: AimR (SPbeta) (UniProt O31927)
Assay: EMSA
Settings: EMSA: 50 mM HEPES pH 7.5, 5 mM MgCl2, 75 mM NaCl, 0.5 mM EDTA, 0.4 uM DNA, 4 uM AimR, 10 min at room temperature, recombinant protein, residues 1-386, protein details: N-terminal 6xHis-TEV, cleaved
[1] = palindrome mutation, affects or abolishes
[2] = apo, similar affinity for 23-28 bp
[3] = apo, dramatic loss beyond -2 bp
[4] = apo, gradual decrease over 28 bp
[5] = SAIRGA peptide (no release), probe letters rebuilt from the primers and the genome
[6] = apo, probe letters rebuilt from the primers and the genome
[7] = boundary mutation, minor effect

| Sequence | binding result (GMPRGA peptide) | binding result [3] | also measured |
| --- | --- | --- | --- |
| GTTGACCACTAGATGTTATTAAAACCTAATATTTAAGTGGTGGCC (double strand) [Mut5] |  |  | binding result [1]: binds more weakly |
| GTTGATCACCAGATGTTATTAAAACCTAATATTTAGGTGATGGCC (double strand) [Mut1] |  |  | binding result [1]: binds more weakly |
| GTTAATCACTAAGATGTTATTAAAACCTAATATTTAAAGTGATAGCC (double strand) [Sp+2 (27 bp spacer)] | no binding |  | binding result [2]: binds |
| GTTAAGATATCACTGTTATTAAAACCTAATAAGTGATTTTAAGCC (double strand) [Sp-8 (17 bp spacer)] | no binding | binds more weakly |  |
| GTTAGTCACTAGATGTTATTAAAACCTAATATTTAAGTGACAGCC (double strand) [Mut6] |  |  | binding result [1]: binds more weakly |
| GTTAATCACTATAAGATGTTATTAAAACCTAATATTTAATAAGTGATAGCC (double strand) [Sp+6 (31 bp spacer)] | no binding |  | binding result [4]: binds more weakly |
| GTTAAGATGATCACTTATTAAAACCTAAGTGATATTTAAGCC (double strand) [Sp-13 (12 bp spacer)] | no binding | binds more weakly |  |
| GTTGATTACTAGATGTTATTAAAACCTAATATTTAAGTAATGGCC (double strand) [Mut4] |  |  | binding result [1]: binds more weakly |
| GTTAATCACTTATAAGATGTTATTAAAACCTAATATTTAATATAGTGATAGCC (double strand) [Sp+8 (33 bp spacer)] | no binding |  | binding result [4]: binds more weakly |
| GTTAATCACTTAAGATGTTATTAAAACCTAATATTTAATAGTGATAGCC (double strand) [Sp+4 (29 bp spacer)] | no binding |  | binding result [4]: binds more weakly |
| GTTAAGAATCACTTGTTATTAAAACCTAATAAGTGATTTTAAGCC (double strand) [Sp-7 (18 bp spacer)] | no binding | binds more weakly |  |
| GGAAGAAGTTAATAAATATTACGCAGAAGAACTAGGTCTAAAAGAGACGACCATTTAAATATGAAATCCATTTGACTATTTTGGTTAAATGGATTTTTCTTTTATCTCAAAAAATTGTGAAAAAATTCGCATTTCGACAAAAATAGACAAAATAATCACTTTAAATACATGTTTAAATGTAGTAAGATGGTCATGTAAACCATATGGTTTACTAAGGAGGAGACCAAGACCAAAGTCTTAGTCGTTTCAATGCCTTTCAACCTTGAATTCATAGAGGTCTTCGACATTACAATCTAAAGCAGCAGC (double strand) [yopR-yopS intergenic] |  |  | binding result [5]: binds; binding result [6]: binds |
| GTTAATCACTTAAGATGTTATTAAAACCTAATATTTAATAAGTGATAGCC (double strand) [Sp+5 (30 bp spacer)] | no binding |  | binding result [4]: binds more weakly |
| GTTGATCATTAGATGTTATTAAAACCTAATATTTAAATGATGGCC (double strand) [Mut2] |  |  | binding result (box position 5, among strongest effects): binds more weakly |
| GTTAATCACTAGATGTTATTAAAACCTAATATTTAGTGATAAGCC (double strand) [Sp-1 (24 bp spacer)] | no binding |  | binding result [2]: binds |
| GTTAAGATCACTATGTTATTAAAACCTAATATAGTGATTTAAGCC (double strand) [Sp-5 (20 bp spacer)] | no binding | binds more weakly |  |
| GTTAATCACTAAGATGTTATTAAAACCTAATATTTAATAGTGATAGCC (double strand) [Sp+3 (28 bp spacer)] | no binding |  | binding result [2]: binds |

| Sequence | binding result (GMPRGA peptide) | binding result [3] | also measured |
| --- | --- | --- | --- |
| GTTAAATCACTGATGTTATTAAAACCTAATATTTAGTGATAAGCC (double strand) [Sp-2 (23 bp spacer)] | no binding |  | binding result [2]: binds |
| GTTAAGATGATCACTTATTAAAACCTAAAGTGATATTTAAGCC (double strand) [Sp-12 (13 bp spacer)] | no binding | binds more weakly |  |
| GTTAATCACTATAAGATGTTATTAAAACCTAATATTTAATATAGTGATAGCC (double strand) [Sp+7 (32 bp spacer)] | no binding |  | binding result [4]: binds more weakly |
| GTTAATCACTAGATGTTATTAAAACCTAATATTTAAAGTGATAGCC (double strand) [Sp+1 (26 bp spacer)] | no binding |  | binding result [2]: binds |
| GTTAAGATGATCACTTTATTAAAACCTAATAGTGATATTTAAGCC (double strand) [Sp-10 (15 bp spacer)] | no binding | binds more weakly |  |
| GAGGGTCAGGGAATTTCGATGAGGCATGGGAAGGAGAAATCCTTGATTTAGAATTTGAGTACACGGTTCTTTGTTTAGAAAAGGGGTTAGAACCACTCAATTATATTATTACCTGGGAAGGATAGGAATTAGCTTTAACAAGTGATTATACCGTTTTAAATGAGTCACAATAGTTCAAAGCAGCGATTCTTTTCTTGAATAAAGAATGTTTAGCTTCAGATATATATCAAAATAAAATGCATATTTTAAATAGAATATGGATAGTGAAAGCTGTACAGAACAAAATTGGAGATGGTCATGATTGATCTTCAAGAAGACAGGTTCATTAAATAATCGCATAGAATTAGGGACAGAGAATTAAAAGAAAAGAAGCAGGTTTGGAACTCTATGGGGAATGACCTCCTTAGTGAAGGAATTGCAAAAGTAATGAAGAACTTAAATAATAGACTTTAAAATTTGAGAAAATAATTAGGTGATAAATTTGGAAAATATAGCTCTTGAATCC (double strand) [yonX-yopA intergenic] |  |  | binding result [5]: binds; binding result [6]: binds |
| GTTAATCACTTATAAGATGTTATTAAAACCTAATATTTAATATAAGTGATAGCC (double strand) [Sp+9 (34 bp spacer)] | no binding |  | binding result [4]: binds more weakly |
| GTTAAGAATCACTTGTTATTAAAACCTAATATAGTGATTTAAGCC (double strand) [Sp-6 (19 bp spacer)] | no binding | binds more weakly |  |
| GTTAAGATGATCACTTTATTAAAACCTAAAGTGATATTTAAGCC (double strand) [Sp-11 (14 bp spacer)] | no binding | binds more weakly |  |
| GTTAATCACTAGATGTTATTAAAACCTAATATTTAAGTGATAGCC (double strand) [Mut-1] |  |  | binding result [7]: binds |
| GTTAAATCACTGATGTTATTAAAACCTAATATTAGTGATTAAGCC (double strand) [Sp-3 (22 bp spacer)] | no binding | binds more weakly |  |
| GTTGATCACTGGATGTTATTAAAACCTAATATTTCAGTGATGGCC (double strand) [Mut+1] |  |  | binding result [7]: binds |
| GTTAATCACTATATAAGATGTTATTAAAACCTAATATTTAATATAAGTGATAGCC (double strand) [Sp+10 (35 bp spacer)] | no binding |  | binding result [4]: binds more weakly |
| GTTGATCGCTAGATGTTATTAAAACCTAATATTTAAGCGATGGCC (double strand) [Mut3] |  |  | binding result (box position 4, among strongest effects): binds more weakly |
| GTTAAGATATCACTGTTATTAAAACCTAATAGTGATATTTAAGCC (double strand) [Sp-9 (16 bp spacer)] | no binding | binds more weakly |  |
| GTTAAGATCACTATGTTATTAAAACCTAATATTAGTGATTAAGCC (double strand) [Sp-4 (21 bp spacer)] | no binding | binds more weakly |  |
